Measurements reported in PubChem BioAssay AID504774 (Drosophila RNAi Screening Center, 2011)

Test: 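Fly genes whose loss alters survival after alkylation damage to DNA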 (primary screen)
System: Drosophila Kc167 cells
Knock-down reagent: long dsRNA against Drosophila genes, about 0.25 µg dsRNA per well
Duration: about 6 days: 3 days knock-down, then 3 days with or without MMS
Challenge: methyl methanesulphonate 0.004% (w/v) for 3 days after knock-down
Measurement: 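ATP-dependent luminescence as a measure of live cells in MMS-exposed wells, quantile normalised within each plate, with replicate values also given as a mean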
Reading the numbers: mean viability with MMS: higher = more surviving cells after MMS
The screen tested about 23,000 reagents; this is an unselected part of those that have a named target and a result. 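Values are quantile-normalised luminescence on an arbitrary scale; higher means more cells surviving MMS.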 Reagents against one gene are numbered here. Not all columns of the deposit are shown.

mean viability with MMS, by gene knocked down and reagent
Mybbp1A: #1 3.53e6
CG13561: #1 3.57e6
Cht12: #1 3.39e6
Tbcb: #1 3.61e6
CG42583: #1 3.57e6
SecCl: #1 3.62e6
Sema2b: #1 3.47e6; #2 3.49e6; #3 3.74e6
AP-2alpha: #1 3.62e6
CG9411: #1 3.63e6
Svip: #1 3.44e6
hng3: #1 3.51e6
wge: #1 3.55e6; #2 3.62e6
Ssl: #1 3.53e6
CG4022: #1 3.41e6
CG2614: #1 1.75e6
CG5245: #1 3.65e6

6 consecutive reagents already listed, for reference:
mean viability with MMS, by gene knocked down and reagent
CG9411: #1 3.63e6
Svip: #1 3.44e6
hng3: #1 3.51e6
wge: #1 3.55e6; #2 3.62e6
Ssl: #1 3.53e6

More results:
mean viability with MMS, by gene knocked down and reagent
Neto: #1 2.12e6; #2 3.49e6; #3 3.59e6; #4 3.50e6
Rpp30: #1 3.40e6
CG5906: #1 3.44e6
didum: #1 3.57e6
nvy: #1 3.68e6
CR18217: #1 3.59e6
CG6683: #1 3.69e6
CG13218: #1 3.48e6
sbb: #1 3.50e6; #2 3.49e6
prtp: #1 3.21e6; #2 3.60e6
CG14673 (retired record): #1 3.73e6
Cpr49Ab: #1 3.55e6
PIG-X: #1 3.72e6
CG10927: #1 3.54e6
l(1)10Bb: #1 3.19e6
CG13690: #1 3.48e6
Cpsf73: #1 3.48e6
Grd: #1 3.61e6
par-6: #1 3.67e6
CG1850: #1 3.58e6
CG18210 (retired record): #1 3.82e6; #2 2.88e6
